Results as given in paper doi:10.1101/2025.11.01.686042.
Results are given in words; binding and its absence hold for the method and conditions named. In cells and extracts the contact can be indirect. Some binding calls cover weakened binding; strength is not graded here. Blank lines part the entries; values can stand above or below the substance they belong to.

Protein sequences, listed by entry. Tags and fused reporters are not part of them. Residues count along the entry.
UniProt P97798, residues 37-1492: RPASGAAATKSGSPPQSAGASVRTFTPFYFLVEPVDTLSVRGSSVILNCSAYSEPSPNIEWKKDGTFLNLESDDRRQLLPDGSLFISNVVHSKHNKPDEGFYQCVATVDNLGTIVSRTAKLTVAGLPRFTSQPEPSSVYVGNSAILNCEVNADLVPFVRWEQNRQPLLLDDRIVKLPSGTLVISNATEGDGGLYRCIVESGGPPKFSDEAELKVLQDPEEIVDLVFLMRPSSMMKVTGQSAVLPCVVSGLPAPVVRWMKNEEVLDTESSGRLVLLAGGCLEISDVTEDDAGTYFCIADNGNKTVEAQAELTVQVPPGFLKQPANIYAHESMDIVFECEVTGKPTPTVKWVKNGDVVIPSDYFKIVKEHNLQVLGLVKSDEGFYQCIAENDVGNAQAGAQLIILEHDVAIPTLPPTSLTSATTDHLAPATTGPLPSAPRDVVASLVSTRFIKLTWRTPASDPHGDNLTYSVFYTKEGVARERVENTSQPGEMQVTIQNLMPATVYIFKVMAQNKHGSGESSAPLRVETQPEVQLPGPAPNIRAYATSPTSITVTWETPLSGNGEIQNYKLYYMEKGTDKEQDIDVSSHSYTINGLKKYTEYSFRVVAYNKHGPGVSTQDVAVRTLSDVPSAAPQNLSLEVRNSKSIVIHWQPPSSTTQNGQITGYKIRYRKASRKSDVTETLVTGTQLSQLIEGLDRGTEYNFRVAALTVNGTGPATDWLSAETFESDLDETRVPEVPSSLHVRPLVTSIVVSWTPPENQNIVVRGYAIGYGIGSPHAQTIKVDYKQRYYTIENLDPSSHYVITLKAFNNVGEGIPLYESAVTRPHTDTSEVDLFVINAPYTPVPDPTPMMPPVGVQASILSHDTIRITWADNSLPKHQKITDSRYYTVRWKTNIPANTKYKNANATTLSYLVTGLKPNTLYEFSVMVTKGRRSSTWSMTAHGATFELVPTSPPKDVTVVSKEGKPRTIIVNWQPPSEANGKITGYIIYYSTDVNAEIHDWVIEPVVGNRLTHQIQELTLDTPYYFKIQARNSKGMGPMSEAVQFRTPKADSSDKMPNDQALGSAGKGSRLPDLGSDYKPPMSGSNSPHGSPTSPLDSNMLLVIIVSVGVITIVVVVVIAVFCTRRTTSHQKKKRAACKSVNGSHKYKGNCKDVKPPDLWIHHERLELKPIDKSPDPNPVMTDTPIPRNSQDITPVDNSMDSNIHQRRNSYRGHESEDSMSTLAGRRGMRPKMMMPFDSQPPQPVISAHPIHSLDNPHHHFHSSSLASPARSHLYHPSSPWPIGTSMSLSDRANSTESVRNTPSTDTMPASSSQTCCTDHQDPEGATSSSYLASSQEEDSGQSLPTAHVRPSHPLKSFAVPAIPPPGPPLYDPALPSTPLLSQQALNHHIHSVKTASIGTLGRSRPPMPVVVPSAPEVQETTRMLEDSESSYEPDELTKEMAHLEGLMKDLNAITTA
UniProt P43146, residues 26-1447: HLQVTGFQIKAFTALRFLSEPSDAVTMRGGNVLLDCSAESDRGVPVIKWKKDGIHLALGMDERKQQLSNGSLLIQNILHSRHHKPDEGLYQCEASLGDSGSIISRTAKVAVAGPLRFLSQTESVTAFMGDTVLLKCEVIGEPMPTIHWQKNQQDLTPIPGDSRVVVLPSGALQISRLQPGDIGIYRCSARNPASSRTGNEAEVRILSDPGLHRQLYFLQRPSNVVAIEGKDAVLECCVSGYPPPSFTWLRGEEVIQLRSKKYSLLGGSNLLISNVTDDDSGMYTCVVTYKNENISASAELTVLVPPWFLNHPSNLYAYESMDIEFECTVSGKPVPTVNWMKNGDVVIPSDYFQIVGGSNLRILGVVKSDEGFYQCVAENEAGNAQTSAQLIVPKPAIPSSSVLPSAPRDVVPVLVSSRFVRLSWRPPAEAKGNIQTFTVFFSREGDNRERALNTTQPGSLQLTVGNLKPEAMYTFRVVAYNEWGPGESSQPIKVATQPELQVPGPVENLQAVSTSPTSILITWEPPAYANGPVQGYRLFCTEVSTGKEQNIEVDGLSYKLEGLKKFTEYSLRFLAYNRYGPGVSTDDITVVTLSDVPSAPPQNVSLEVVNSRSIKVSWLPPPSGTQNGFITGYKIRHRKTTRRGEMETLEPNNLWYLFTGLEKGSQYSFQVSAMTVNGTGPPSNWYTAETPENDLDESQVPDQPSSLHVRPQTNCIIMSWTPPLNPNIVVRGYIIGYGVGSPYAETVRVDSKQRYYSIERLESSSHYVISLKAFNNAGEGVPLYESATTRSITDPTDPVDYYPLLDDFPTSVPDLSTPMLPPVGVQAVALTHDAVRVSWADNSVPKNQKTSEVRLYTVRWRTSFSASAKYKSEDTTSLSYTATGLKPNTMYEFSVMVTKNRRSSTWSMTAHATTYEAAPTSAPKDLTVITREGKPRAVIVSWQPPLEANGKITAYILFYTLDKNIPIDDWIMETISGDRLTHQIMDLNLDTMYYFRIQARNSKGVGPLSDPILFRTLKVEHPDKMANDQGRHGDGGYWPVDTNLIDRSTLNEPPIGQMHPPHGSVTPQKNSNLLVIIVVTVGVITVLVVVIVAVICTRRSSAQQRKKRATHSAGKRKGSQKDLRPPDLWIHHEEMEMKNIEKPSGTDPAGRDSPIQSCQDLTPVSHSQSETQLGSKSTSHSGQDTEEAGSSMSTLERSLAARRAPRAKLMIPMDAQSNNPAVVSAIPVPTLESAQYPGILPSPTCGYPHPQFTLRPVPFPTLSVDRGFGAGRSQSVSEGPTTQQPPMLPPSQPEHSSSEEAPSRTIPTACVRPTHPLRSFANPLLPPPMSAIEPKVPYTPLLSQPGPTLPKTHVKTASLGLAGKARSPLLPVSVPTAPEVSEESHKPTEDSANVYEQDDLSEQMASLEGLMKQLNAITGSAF
UniProt P70211, residues 26-1447: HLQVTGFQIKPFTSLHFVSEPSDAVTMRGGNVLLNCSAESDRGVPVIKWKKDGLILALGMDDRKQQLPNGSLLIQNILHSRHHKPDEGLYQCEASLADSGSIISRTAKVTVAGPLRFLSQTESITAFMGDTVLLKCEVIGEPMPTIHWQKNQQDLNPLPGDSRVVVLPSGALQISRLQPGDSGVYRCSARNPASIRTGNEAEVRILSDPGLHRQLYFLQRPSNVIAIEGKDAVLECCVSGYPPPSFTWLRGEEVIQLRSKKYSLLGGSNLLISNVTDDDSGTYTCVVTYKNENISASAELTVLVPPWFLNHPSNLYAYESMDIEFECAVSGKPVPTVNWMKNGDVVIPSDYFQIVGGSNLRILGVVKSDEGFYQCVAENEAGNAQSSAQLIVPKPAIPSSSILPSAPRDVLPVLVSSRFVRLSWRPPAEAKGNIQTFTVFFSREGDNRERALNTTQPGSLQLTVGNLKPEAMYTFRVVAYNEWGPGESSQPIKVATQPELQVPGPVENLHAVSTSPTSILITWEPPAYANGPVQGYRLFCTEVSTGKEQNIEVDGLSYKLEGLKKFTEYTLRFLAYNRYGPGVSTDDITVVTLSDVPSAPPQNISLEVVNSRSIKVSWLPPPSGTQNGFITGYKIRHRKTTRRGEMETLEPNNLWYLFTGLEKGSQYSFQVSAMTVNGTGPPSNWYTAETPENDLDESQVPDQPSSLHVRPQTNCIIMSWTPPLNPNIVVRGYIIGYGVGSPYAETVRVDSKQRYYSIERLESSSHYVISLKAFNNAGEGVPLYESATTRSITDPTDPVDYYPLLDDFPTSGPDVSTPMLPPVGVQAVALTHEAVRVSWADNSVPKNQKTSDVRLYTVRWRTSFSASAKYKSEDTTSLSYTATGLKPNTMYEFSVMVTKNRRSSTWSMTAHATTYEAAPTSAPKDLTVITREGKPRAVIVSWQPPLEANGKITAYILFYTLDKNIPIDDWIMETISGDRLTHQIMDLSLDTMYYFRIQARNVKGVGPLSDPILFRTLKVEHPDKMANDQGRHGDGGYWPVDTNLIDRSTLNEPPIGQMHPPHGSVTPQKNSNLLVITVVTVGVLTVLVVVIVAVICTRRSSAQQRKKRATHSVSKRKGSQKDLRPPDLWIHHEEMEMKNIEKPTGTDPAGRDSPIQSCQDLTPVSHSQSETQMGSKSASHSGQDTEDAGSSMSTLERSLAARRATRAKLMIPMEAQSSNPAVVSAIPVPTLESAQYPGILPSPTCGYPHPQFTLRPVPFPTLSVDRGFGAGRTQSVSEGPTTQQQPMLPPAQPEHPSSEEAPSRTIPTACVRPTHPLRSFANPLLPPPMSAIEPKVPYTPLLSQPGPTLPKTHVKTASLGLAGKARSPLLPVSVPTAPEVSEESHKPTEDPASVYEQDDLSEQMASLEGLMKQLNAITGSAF

Key:
Experiment in all cases: co-IP
[1] = biological target: endogenous Neogenin (Neo1) (P14 mouse brain) (mouse (endogenous in P14 brain)) (UniProt P97798)
[2] = biological target: HA-tagged Dcc (pcDNA3-hDcc-3XHA) (human) (UniProt P43146)
[3] = biological target: Neogenin1-Myc (pEF-Cyto-Neogenin1-Myc) (UniProt P97798)
[4] = biological target: endogenous Dcc (P14 mouse brain) (mouse (endogenous in P14 brain)) (UniProt P70211)

- binding [1]: binds
Substance: endogenous Dcc (P14 mouse brain) (from UniProt P70211 26-1447) (receptor)

- binding [2]: binds
Substance: Neogenin1-Myc (pEF-Cyto-Neogenin1-Myc) (from UniProt P97798 37-1492) (receptor)

- binding [3]: binds
Substance: HA-tagged Dcc (pcDNA3-hDcc-3XHA) (from UniProt P43146 26-1447) (receptor)

- binding [4]: binds
Substance: endogenous Neogenin (Neo1) (P14 mouse brain) (from UniProt P97798 37-1492) (receptor)
